# No constants are given. Whether binding was seen depends on the method and setting. In cells and extracts the contact can be indirect. Here binding means that the protein was enriched with, or labelled near, the bait; the list need not be complete. Where a sequence is shown, tags or fusion partners need not be part of it.
# Chains of the proteins cited; added tags and fusions are not shown. Residues count along the entry.
# UniProt P30530, residues 26-894: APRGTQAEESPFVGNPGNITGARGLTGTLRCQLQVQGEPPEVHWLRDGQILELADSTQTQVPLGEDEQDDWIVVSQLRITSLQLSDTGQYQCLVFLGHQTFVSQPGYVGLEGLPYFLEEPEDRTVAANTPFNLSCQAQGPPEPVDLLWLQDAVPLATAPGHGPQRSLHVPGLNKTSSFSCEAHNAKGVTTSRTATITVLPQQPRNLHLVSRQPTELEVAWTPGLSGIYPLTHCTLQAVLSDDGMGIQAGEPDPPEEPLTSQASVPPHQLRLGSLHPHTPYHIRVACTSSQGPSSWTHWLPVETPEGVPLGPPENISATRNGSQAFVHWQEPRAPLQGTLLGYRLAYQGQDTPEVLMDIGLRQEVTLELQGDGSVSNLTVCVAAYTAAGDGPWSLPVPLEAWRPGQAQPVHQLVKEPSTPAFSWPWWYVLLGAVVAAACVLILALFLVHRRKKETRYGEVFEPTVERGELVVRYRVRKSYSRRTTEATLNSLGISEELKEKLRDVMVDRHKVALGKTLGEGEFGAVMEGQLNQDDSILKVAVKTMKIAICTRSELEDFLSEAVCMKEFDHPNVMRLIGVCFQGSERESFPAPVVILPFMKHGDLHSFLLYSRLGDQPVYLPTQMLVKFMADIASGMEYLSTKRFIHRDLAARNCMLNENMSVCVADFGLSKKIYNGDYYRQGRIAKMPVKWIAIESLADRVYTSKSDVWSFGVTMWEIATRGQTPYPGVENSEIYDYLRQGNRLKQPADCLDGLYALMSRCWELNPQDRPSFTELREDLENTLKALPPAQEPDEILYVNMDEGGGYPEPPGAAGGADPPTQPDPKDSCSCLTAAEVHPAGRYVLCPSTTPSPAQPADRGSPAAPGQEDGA
# UniProt P11166: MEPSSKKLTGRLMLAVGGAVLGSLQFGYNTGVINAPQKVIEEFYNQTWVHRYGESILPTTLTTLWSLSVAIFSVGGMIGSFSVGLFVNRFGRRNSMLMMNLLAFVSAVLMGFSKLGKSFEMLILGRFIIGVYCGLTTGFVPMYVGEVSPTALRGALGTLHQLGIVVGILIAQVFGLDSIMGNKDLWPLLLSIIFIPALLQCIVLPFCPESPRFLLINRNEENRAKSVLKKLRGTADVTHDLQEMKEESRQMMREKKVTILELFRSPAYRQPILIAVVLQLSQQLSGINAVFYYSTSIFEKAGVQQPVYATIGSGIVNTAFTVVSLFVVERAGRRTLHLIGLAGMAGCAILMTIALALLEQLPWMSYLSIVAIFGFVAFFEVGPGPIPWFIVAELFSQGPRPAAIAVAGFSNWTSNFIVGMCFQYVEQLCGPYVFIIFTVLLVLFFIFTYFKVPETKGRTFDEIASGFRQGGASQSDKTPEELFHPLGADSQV
# T1: Flag-labeled PFKP (Phosphofructokinase, Platelet Type), 3x Flag tag (human) (UniProt Q01813)
# T1 sequence: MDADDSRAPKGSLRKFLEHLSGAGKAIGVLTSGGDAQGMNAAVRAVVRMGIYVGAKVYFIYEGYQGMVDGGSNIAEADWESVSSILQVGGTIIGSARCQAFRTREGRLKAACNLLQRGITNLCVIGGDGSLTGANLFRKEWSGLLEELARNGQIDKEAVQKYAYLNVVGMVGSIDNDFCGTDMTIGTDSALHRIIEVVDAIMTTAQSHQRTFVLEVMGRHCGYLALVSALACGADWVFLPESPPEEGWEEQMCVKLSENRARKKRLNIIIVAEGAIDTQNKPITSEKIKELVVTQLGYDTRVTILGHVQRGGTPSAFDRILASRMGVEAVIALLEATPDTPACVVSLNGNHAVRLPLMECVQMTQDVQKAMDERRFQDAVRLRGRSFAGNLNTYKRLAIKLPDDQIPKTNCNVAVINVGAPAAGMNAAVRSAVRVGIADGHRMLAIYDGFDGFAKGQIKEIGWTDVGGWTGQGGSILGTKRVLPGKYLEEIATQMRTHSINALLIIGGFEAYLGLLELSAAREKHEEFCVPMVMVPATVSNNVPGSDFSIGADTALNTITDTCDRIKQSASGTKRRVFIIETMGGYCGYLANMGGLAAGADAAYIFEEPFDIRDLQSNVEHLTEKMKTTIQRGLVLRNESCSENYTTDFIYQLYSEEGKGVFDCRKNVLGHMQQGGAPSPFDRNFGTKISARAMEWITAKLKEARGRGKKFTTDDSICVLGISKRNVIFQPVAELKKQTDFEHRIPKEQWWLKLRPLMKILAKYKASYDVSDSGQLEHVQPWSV
# Biological target: T1, Flag-labeled PFKP (Phosphofructokinase, Platelet Type), 3x Flag tag (human)
# Assay: affinity purification with mass spectrometry
row,binding,Molecule
1,binds,"AXL (AXL Receptor Tyrosine Kinase, Anexelekto; tyrosine-protein kinase receptor UFO) (from UniProt P30530 26-894)"
2,binds,"GLUT1 (SLC2A1, Solute Carrier Family 2 Member 1) (from UniProt P11166 1-492)"
3,binds,"MCT1 (lactate transport) (protein, UniProt P53985 1-500) MPPAVGGPVGYTPPDGGWGWAVVIGAFISIGFSYAFPKSITVFFKEIEGIFHATTSEVSWISSIMLAVMYGGGPISSILVNKYGSRIVMIVGGCLSGCGLIAASFCNTVQQLYVCIGVIGGLGLAFNLNPALTMIGKYFYKRRPLANGLAMAGSPVFLCTLAPLNQVFFGIFGWRGSFLILGGLLLNCCVAGALMRPIGPKPTKAGKDKSKASLEKAGKSGVKKDLHDANTDLIGRHPKQEKRSVFQTINQFLDLTLFTHRGFLLYLSGNVIMFFGLFAPLVFLSSYGKSQHYSSEKSAFLLSILAFVDMVARPSMGLVANTKPIRPRIQYFFAASVVANGVCHMLAPLSTTYVGFCVYAGFFGFAFGWLSSVLFETLMDLVGPQRFSSAVGLVTIVECCPVLLGPPLLGRLNDMYGDYKYTYWACGVVLIISGIYLFIGMGINYRLLAKEQKANEQKKESKEEETSIDVAGKPNEVTKAAESPDQKDTDGGPKEEESPV"

# — paper doi:10.1101/2024.03.03.583230
